No constants are given. Whether binding was seen depends on the method and setting. In cells and extracts the contact can be indirect. Some entries that bind do so weakly or less than the wild type.
Columns and labels:
[1] = target: Epidermal growth factor receptor (endogenous, A549 lung cancer cells) (human) (UniProt P00533); assay: co-immunoprecipitation with anti-TTK antibodies from A549 cell extracts, without or with EGF (100 nM); western blot for endogenous EGFR
[2] = target: Epidermal growth factor receptor (endogenous, A549 lung cancer cells) (human) (UniProt P00533); assay: co-immunoprecipitation with anti-TTK antibodies from A549 cell extracts, without or with EGF (100 nM); western blot for endogenous EGFR (FIG. 4b legend)

B1: TTK protein kinase (endogenous, A549 lung cancer cells) (enzyme)
chain: MESEDLSGRELTIDSIMNKVRDIKNKFKNEDLTDELSLNKISADTTDNSGTVNQIMMMANNPEDWLSLLLKLEKNSVPLSDALLNKLIGRYSQAIEALPPDKYGQNESFARIQVRFAELKAIQEPDDARDYFQMARANCKKFAFVHISFAQFELSQGNVKKSKQLLQKAVERGAVPLEMLEIALRNLNLQKKQLLSEEEKKNLSASTVLTAQESFSGSLGHLQNRNNSCDSRGQTTKARFLYGENMPPQDAEIGYRNSLRQTNKTKQSCPFGRVPVNLLNSPDCDVKTDDSVVPCFMKRQTSRSECRDLVVPGSKPSGNDSCELRNLKSVQNSHFKEPLVSDEKSSELIITDSITLKNKTESSLLAKLEETKEYQEPEVPESNQKQWQSKRKSECINQNPAASSNHWQIPELARKVNTEQKHTTFEQPVFSVSKQSPPISTSKWFDPKSICKTPSSNTLDDYMSCFRTPVVKNDFPPACQLSTPYGQPACFQQQQHQILATPLQNLQVLASSSANECISVKGRIYSILKQIGSGGSSKVFQVLNEKKQIYAIKYVNLEEADNQTLDSYRNEIAYLNKLQQHSDKIIRLYDYEITDQYIYMVMECGNIDLNSWLKKKKSIDPWERKSYWKNMLEAVHTIHQHGIVHSDLKPANFLIVDGMLKLIDFGIANQMQPDTTSVVKDSQVGTVNYMPPEAIKDMSSSRENGKSKSKISPKSDVWSLGCILYYMTYGKTPFQQIINQISKLHAIIDPNHEIEFPDIPEKDLQDVLKCCLKRDPKQRISIPELLAHPYVQIQTHPVNQMAKGTTEEMKYVLGQLVGLNSPNSILKAAKTLYEHYSGGESHNSSSSKTFEKKRGKK
B1 was tested, and the binding [1] was “binds” and the binding [2] was “binds”.
